Laboratory results as given in paper PMC5548801, “Characterization of C-terminal structure of MinC and its implication in evolution of bacterial cell division” (Scientific Reports, 2017).
Results are given in words; binding and its absence hold for the method and conditions named. Binding seen in cells or lysates may run through a third protein. Some results given as binding are weak or reduced against the parent protein; the word gives no strength.

Protein sequences, listed by entry. Tags and fused reporters are not part of them. Lines headed by an entry give the natural chain unless they say otherwise; changes in a name come on top. Residues count along the entry.
UniProt P0AEZ3, residues 1-260: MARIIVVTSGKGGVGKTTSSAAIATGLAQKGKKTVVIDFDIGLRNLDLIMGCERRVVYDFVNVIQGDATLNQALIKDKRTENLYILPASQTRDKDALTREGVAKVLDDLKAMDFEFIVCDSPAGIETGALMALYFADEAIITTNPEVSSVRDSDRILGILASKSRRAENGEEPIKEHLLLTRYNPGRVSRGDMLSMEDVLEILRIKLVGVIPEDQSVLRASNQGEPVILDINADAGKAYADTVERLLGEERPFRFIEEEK

Molecular target: EcMinDΔC10 (E. coli) (UniProt P0AEZ3)
Test: pull-down; competition experiment on the MinDE complex, MinE looked for in the elution (Fig. S7); set-up not shown

binding: binds
Substance: EcMinE (from UniProt P0A734 1-88)
